Where a name gives a salt, the structure may show the parent alone. The list shows a part of the results. Baselines shift from plate to plate; read single values as rough.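 The strain is a K-12 laboratory model grown without shaking in 96-well plates, and biofilm is the crystal violet stain retained on the wells, read as absorbance. Drugs were picked as candidate specific biofilm blockers when they cut staining strongly but slowed free-floating growth by less than 70%.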

For this test, the system named is Escherichia coli W3110. Nature of the test: biofilm formation (crystal violet staining) relative to untreated control; higher = more biofilm. Conditions: 10 µM; 20-24 h; 30 °C; TB.
On to `C=CCC1(CC(C)C)C(=O)NC(=O)NC1=O` [Butalbital], for which the biofilm formation was found to be 93%.
Then `NC(=O)OCCCc1ccccc1` [Phenprobamate], with 78%; and `OC(c1ccccc1)(c1ccccc1)C1CCNCC1` [Azacyclonol], with 68%.
Turning to `C[N+]1(C)CCCC(OC(=O)C(O)(c2ccccc2)c2ccccc2)C1` (stereo not drawn) [Mepenzolate bromide], the biofilm formation turned out to be 83%.
Then `CCCC(C)(COC(N)=O)COC(=O)NC(C)C` (stereo not drawn) [Carisoprodol], with 79%.
As for `C=C1C[C@@H]2[C@H](CC[C@]3(C)C(=O)CC[C@@H]23)[C@@]2(C)C=CC(=O)C=C12` [Exemestane], the figure is 67%; as for `CC(=O)[C@H]1CC[C@H]2[C@@H]3CC[C@H]4C[C@H](O)CC[C@]4(C)[C@H]3C(=O)C[C@]12C` [Alfaxalone], 80%; as for `C[C@]12C/C(=C/O)C(=O)C[C@@H]1CC[C@@H]1[C@@H]2CC[C@@]2(C)[C@H]1CC[C@]2(C)O` [Oxymetholone], 69%.
Then `COC[C@@H](NC(C)=O)C(=O)NCc1ccccc1` [Lacosamide], with 59%; and `CN1C(=O)CCS(=O)(=O)C1c1ccc(Cl)cc1` (stereo not drawn) [Chlormezanone], with 52%.
`C[C@]12COC(=O)C[C@@H]1CC[C@@H]1[C@@H]2CC[C@@]2(C)[C@H]1CC[C@]2(C)O` [Oxandrolone] showed a biofilm formation of 62%.
As for `CCCCCC[C@H]1C(=O)O[C@H](C)[C@H](NC(=O)c2cccc(NC=O)c2O)C(=O)O[C@@H](C)[C@@H]1OC(=O)CC(C)C` [Antimycin A], the figure is 68%; as for `c1ccc2c(c1)OCC(C1=NCCN1)O2` (stereo not drawn) [Idazoxan hydrochloride], 56%.
Then `CC[N+]1(C)CCCC(OC(=O)C(O)(c2ccccc2)c2ccccc2)C1` (stereo not drawn) [Pipenzolate bromide], with 95%.
Then `COc1cc2c(c(OC)c1OC)-c1ccc(OC)c(=O)cc1[C@@H](NC(C)=O)CC2` [Colchicine], with 48%; and `CN1C[C@H](CNC(=O)OCc2ccccc2)C[C@@H]2c3cccc4c3c(cn4C)C[C@H]21` [Metergoline], with 48%; and `CC(=O)O[C@H]1CC[C@@]2(C)C(=CC[C@@H]3[C@@H]2CC[C@]2(C)C(=O)CC[C@@H]32)C1` [Dehydroisoandosterone 3-acetate], with 50%.
`O=C(NCNC(=O)NC1C(=O)NC(=O)N1CO)NC1C(=O)NC(=O)N1CO` (stereo not drawn) [Imidurea] returned a biofilm formation of 76%.
Consider `Oc1ccc2c3c1O[C@H]1[C@@H](O)CC[C@@]4(O)[C@@H](C2)N(CC2CCC2)CC[C@]314` [Nalbuphine hydrochloride], for which the biofilm formation was determined as 58%.
In the case of `C[C@]12CC[C@H](O)C[C@H]1CC[C@@H]1[C@@H]2CC[C@]2(C)[C@@H](C3=CC(=O)OC3)CC[C@]12O` [Digitoxigenin], the biofilm formation was 60%.
As for `CC(C)c1cccc(C(C)C)c1O` [Propofol], the figure is 69%.
As for `CCOC(=O)c1cncn1[C@H](C)c1ccccc1` [Etomidate], the figure is 85%; as for `CC(O)(CS(=O)(=O)c1ccc(F)cc1)C(=O)Nc1ccc(C#N)c(C(F)(F)F)c1` (stereo not drawn) [Bicalutamide], 80%; as for `NCC1(CC(=O)O)CCCCC1` [Gabapentin], 87%.
Then `O=[N+]([O-])O[C@H]1CO[C@H]2[C@@H]1OC[C@H]2O[N+](=O)[O-]` [Isosorbide dinitrate], with 96%.
Take `C=C1CC[C@@]2(O)[C@H]3Cc4ccc(O)c5c4[C@@]2(CCN3CC2CC2)[C@H]1O5` [Nalmefene hydrochloride]: the biofilm formation worked out at 76%.
`O=C(CCCN1CCC2(CC1)C(=O)NCN2c1ccccc1)c1ccc(F)cc1` [Spiperone] displayed a biofilm formation of 50%.
As for `CC(N)C(O)c1ccccc1` (stereo not drawn) [Phenylpropanolamine hydrochloride], the figure is 64%.
As for `O=c1[nH]oc2c1CCNC2` [THIP Hydrochloride], the figure is 87%; as for `CC[C@@H](CO)NC(=O)[C@@H]1C=C2c3cccc4[nH]cc(c34)C[C@H]2N(C)C1` [Methylergometrine maleate], 68%; as for `C[C@@H]1C[C@@H]([C@H](O)CC2CC(=O)NC(=O)C2)C(=O)[C@@H](C)C1` [Cycloheximide], 98%.
Then `Cc1cc(C(C#N)c2ccc(Cl)cc2)c(Cl)cc1NC(=O)c1cc(I)cc(I)c1O` (stereo not drawn) [Closantel], with 84%; and `CC(NC(C)(C)C)C(=O)c1cccc(Cl)c1` (stereo not drawn) [Bupropion hydrochloride], with 60%; and `CN1CCC2(C)c3cc(O)ccc3N(C)C12` (single isomer, unassigned; (-)) [(-)-Eseroline fumarate salt], with 76%.
In the case of `O=C1CC[C@@]2(O)[C@H]3Cc4ccc(O)c5c4[C@@]2(CCN3CC2CC2)[C@H]1O5` [Naltrexone hydrochloride dihydrate], the biofilm formation was determined as 57%.
Then `CN1CCN(C(=O)O[C@H]2c3nccnc3C(=O)N2c2ccc(Cl)cn2)CC1` [Eszopiclone], with 57%.
As for `CN[C@@H]1[C@@H](O)[C@@H](O[C@@H]2[C@@H](O)[C@H](O[C@H]3O[C@H](CN)CC[C@H]3N)[C@@H](N)C[C@H]2N)OC[C@]1(C)O.CN[C@@H]1[C@@H](O)[C@@H](O[C@@H]2[C@@H](O)[C@H](O[C@H]3O[C@H]([C@@H](C)N)CC[C@H]3N)[C@@H](N)C[C@H]2N)OC[C@]1(C)O.CN[C@@H]1[C@@H](O)[C@@H](O[C@@H]2[C@@H](O)[C@H](O[C@H]3O[C@H]([C@@H](C)NC)CC[C@H]3N)[C@@H](N)C[C@H]2N)OC[C@]1(C)O` [Gentamicine sulfate], the figure is 32%.
As to `NCC(CC(=O)O)c1ccc(Cl)cc1` (racemic) [Baclofen (R,S)], the biofilm formation came to 58%.
With `N[C@@H]1C[C@H]1c1ccccc1` [Tranylcypromine hydrochloride], the biofilm formation amounted to 70%.
In turn, `C#C[C@]1(O)CC[C@H]2[C@@H]3CCC4=CC(=O)CCC4=C3C=C[C@@]21CC` [Gestrinone] yielded a biofilm formation of 95%.
Then `CN1[C@@H]2C[C@@H](OC(=O)[C@H](CO)c3ccccc3)C[C@H]1[C@@H]1O[C@@H]12` [Scopolamine hydrochloride], with 89%; and `C[C@]12CCC(=O)C=C1C=C[C@@H]1[C@@H]2CC[C@@]2(C)[C@H]1CC[C@@]2(O)CCC(=O)O` [Canrenoic acid potassium salt], with 85%; and `CCCC(C)C1(CC)C(=O)NC(=O)NC1=O` (stereo not drawn) [Pentobarbital], with 97%.

The record behind these values is the supplement of paper PMC7580552.
